This is an account of results in patent US20170306047A1 (KOREA RESEARCH INSTITUTE OF BIOSCIENCE AND BIOTECHNOLOGY, published 2017).

The target of experiment [1] is Flag-tagged RACK1 (UniProt P63244 1-317). The experiment is described as follows: anti-FLAG immunoprecipitation, Western blot (FIG. 20A legend). Here is the method: Specifically, to check interaction between the NDRG3 and RACK1, HeLa cells were transfected with NDRG3 and/or Flag-tagged RACK1 expression vectors, as described in Example 3, treated with 20 μM MG132 for 8 hours under a normoxic condition (21% O₂), cultured, collected, lysed, and then immunoprecipitated with anti-FLAG M2 beads. Thereafter, to check the presence of the NDRG3 bound to RACK-1, Western blotting was performed using an anti-NDRG3 antibody (FIG. 20A).

For experiment [2], the target named is T1, Flag-tagged PHD2 (UniProt Q9GZT9 1-426).
T1 construct: Expressed in transfected MCF-7, HeLa or HEK293T cells; also called PHD2-Flag; prolyl-hydroxylase domain 2; not shown: Flag tag
Put plainly: anti-FLAG immunoprecipitation from HeLa cells co-transfected with NDRG3 and Flag-tagged PHD family members, anti-NDRG3 Western blot (FIG. 5B). The protocol:
Also, to check the interaction between the PHD family and the NDRG3 protein, Flag-tagged PHD1, Flag-tagged PHD2, Flag-tagged PHD3, Flag-tagged P4HTM, a Flag-tagged P4HA1 expression vector, and an NDRG3 expression vector were constructed, and HeLa cells were transfected with the NDRG3 and the Flag-tagged PHD family, respectively, using the method described in Example 3. Therefore, the HeLa cells were treated with 20 μM MG132 for 8 hours under normal conditions, harvested, and lysed. Subsequently, the cell lysate was immunoprecipitated with anti-FLAG M2 beads, and was then subjected to Western blotting using the anti-NDRG3 antibody (FIG. 5B).
(A western blot detects proteins with antibodies after separation by electrophoresis.)

For experiment [3], the target named is T1, Flag-tagged PHD2. The experiment is described as follows: co-immunoprecipitation with anti-Myc gel from HEK293T cells, anti-Flag Western blot. The protocol:
Thereafter, HEK293T cells (ATCC) were transfected with each of the Myc-tagged NDRG3 variants, the Flag-tagged PHD2, and the HA-tagged VHL construct at the same time, as described in Example 3, and the transformed HEK293T cells were treated with 20 μM MG132 for 8 hours, and then lysed. The cell lysate was immunoprecipitated using an anti-Myc affinity gel (Sigma), and then subjected to Western blotting using the anti-Flag, anti-HA and anti-Myc antibodies as primary antibodies (FIG. 6B).

B1: N-myc downstream-regulated gene 3 (NDRG3) protein (other)
chain: MDELQDVQLTEIKPLLNDKNGTRNFQDFDCQEHDIETTHGVVHVTIRGLPKGNRPVILTYHDIGLNHKSCFNAFFNFEDMQEITQHFAVCHVDAPGQQEGAPSFPTGYQYPTMDELAEMLPPVLTHLSLKSIIGIGVGAGAYILSRFALNHPELVEGLVLINVDPCAKGWIDWAASKLSGLTTNVVDIILAHHFGQEELQANLDLIQTYRMHIAQDINQDNLQLFLNSYNGRRDLEIERPILGQNDNKSKTLKCSTLLVVGDNSPAVEAVVECNSRLNPINTTLLKMADCGGLPQVVQPGKLTEAFKYFLQGMGYIPSASMTRLARSRTHSTSSSLGSGESPFSRSVTSNQSDGTQESCESPDVLDRHQTMEVSC
notes: Untagged NDRG3 in cell lysates; also called human NDRG3
B1: the binding result in experiment [1] and in experiment [2] was “binds” each time.

B2: Myc-tagged NDRG3 (R47D) variant (other)
chain: MDELQDVQLTEIKPLLNDKNGTRNFQDFDCQEHDIETTHGVVHVTIDGLPKGNRPVILTYHDIGLNHKSCFNAFFNFEDMQEITQHFAVCHVDAPGQQEGAPSFPTGYQYPTMDELAEMLPPVLTHLSLKSIIGIGVGAGAYILSRFALNHPELVEGLVLINVDPCAKGWIDWAASKLSGLTTNVVDIILAHHFGQEELQANLDLIQTYRMHIAQDINQDNLQLFLNSYNGRRDLEIERPILGQNDNKSKTLKCSTLLVVGDNSPAVEAVVECNSRLNPINTTLLKMADCGGLPQVVQPGKLTEAFKYFLQGMGYIPSASMTRLARSRTHSTSSSLGSGESPFSRSVTSNQSDGTQESCESPDVLDRHQTMEVSC
notes: Expressed in HEK293T cells together with Flag-PHD2 and HA-VHL; not shown: Myc tag
For the molecule B2, the binding result in experiment [3] is “no binding”.

B3: Myc-tagged NDRG3 (N66D) variant (other)
chain: MDELQDVQLTEIKPLLNDKNGTRNFQDFDCQEHDIETTHGVVHVTIRGLPKGNRPVILTYHDIGLDHKSCFNAFFNFEDMQEITQHFAVCHVDAPGQQEGAPSFPTGYQYPTMDELAEMLPPVLTHLSLKSIIGIGVGAGAYILSRFALNHPELVEGLVLINVDPCAKGWIDWAASKLSGLTTNVVDIILAHHFGQEELQANLDLIQTYRMHIAQDINQDNLQLFLNSYNGRRDLEIERPILGQNDNKSKTLKCSTLLVVGDNSPAVEAVVECNSRLNPINTTLLKMADCGGLPQVVQPGKLTEAFKYFLQGMGYIPSASMTRLARSRTHSTSSSLGSGESPFSRSVTSNQSDGTQESCESPDVLDRHQTMEVSC
notes: Expressed in transfected HEK293T or HeLa cells and tested in cell lysates; also called NDRG3 (N66D)-Myc; Myc-NDRG3 (N66D); not shown: Myc tag
As for B3, the binding result in experiment [3] was “no binding”.
